3 sequences from paper PMC3355086 can be followed below.

Sequences of proteins named here, by UniProt entry; tags and fusion partners are left off. A change or cut given only in a name is not applied to a line headed by its entry.
UniProt Q9Y5J3: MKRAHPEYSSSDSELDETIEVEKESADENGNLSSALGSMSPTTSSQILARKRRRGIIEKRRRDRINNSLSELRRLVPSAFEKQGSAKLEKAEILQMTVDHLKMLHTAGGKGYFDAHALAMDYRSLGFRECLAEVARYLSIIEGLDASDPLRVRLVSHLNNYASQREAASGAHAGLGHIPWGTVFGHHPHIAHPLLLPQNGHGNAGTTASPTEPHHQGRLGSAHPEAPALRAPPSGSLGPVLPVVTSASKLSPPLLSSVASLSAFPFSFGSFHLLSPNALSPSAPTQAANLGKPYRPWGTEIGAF

Data set [1] has as its target MBP-HEY1 (UniProt Q9Y5J3). The data set is described as follows: EMSA. The settings on record: 20 mM Tris pH 7.6, 100 mM KCl, 0.5 mM EDTA, 0.1% Nonidet P-40, 1 mM MgCl2, 1 mM DTT, 10% glycerol, 1 ng MBP-HEY1, 1 ug poly-dAdT, 5 ng probe in 10 ul, 30 min on ice, recombinant protein, protein details: MBP. (In general: A gel shift assay detects complexes by their altered migration in electrophoresis.)

In data set [2] the target is MBP-HEY1 (UniProt Q9Y5J3). The experiment in a line: competition with a labelled probe. The settings on record: 5-, 15-, 50-fold excess, 20 mM Tris pH 7.6, 100 mM KCl, 0.5 mM EDTA, 0.1% Nonidet P-40, 1 mM MgCl2, 1 mM DTT, 1 ng MBP-HEY1, 1 ug poly-dAdT, 5 ng probe in 10 ul, 30 min on ice, recombinant protein, protein details: MBP.
Setting [3] is: own binding easily competed by excess CACGTG.

For at least one entry, the source does not settle the construct or the ends of the probe. Weaker means in comparison with the reference protein, sequence or condition of that experiment.

Consider “GTGTTATGGCACGCGCCATACTG / GCAGTATGGCGCGTGCCATAACA [ChIP-Ebox CACGCG]”, for which the binding result with MBP-HEY1 [1] (setting [3]) is listed as “binds more weakly”; in the data set with MBP-HEY1 [2] (unlabeled competitor vs biotin-CACGTG, much poorer competitor, 10% glycerol), “binds more weakly”.
Regarding “GTGTTATGGCACGTGCCATACTG / GCAGTATGGCACGTGCCATAACA [ChIP-Ebox CACGTG]”, the binding result in the data set with MBP-HEY1 [1] (1 mM Mg2+, poly-dAdT) is “binds”; in the data set with MBP-HEY1 [2] (unlabeled self competitor, efficient, 10% …), “binds”.
Turning to “GTGTTATGGCGCGCGCCATACTG / GCAGTATGGCGCGCGCCATAACA [ChIP-Ebox CGCGCG]”, the binding result with MBP-HEY1 [1] (setting [3]) is recorded as “binds more weakly”; with MBP-HEY1 [2] (unlabeled competitor vs biotin-CACGTG, least effective, 10% glycerol) it was “binds more weakly”.
